According to patent US20240294641A1 (CHILDREN S MEDICAL CENTER, published 2024):
Substitutions are numbered along the chain they refer to. Results are given in words; binding and its absence hold for the method and conditions named. Some results given as binding are weak or reduced against the parent protein; the word gives no strength. For some of these results: Sequences can lack the tags named with a protein.

By UniProt entry, the sequences of proteins in these tests, tags left out. Residues count along the entry.
UniProt Q15116, residues 25-170: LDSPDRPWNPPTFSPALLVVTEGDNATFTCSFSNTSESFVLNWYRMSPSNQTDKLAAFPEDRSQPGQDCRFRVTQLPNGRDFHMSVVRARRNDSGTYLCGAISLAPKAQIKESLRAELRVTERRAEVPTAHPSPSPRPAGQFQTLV

T1: PD1 N-terminal loop-GST fusion protein (human)
T1 sequence: LDSPDRPWNP

B1: M2-1 (antibody, human IgG4, V domains shown)
VH: QVQLVESGGDVVQPGGSLRLSCSASGLVFRDYGMNWVRQAPGKGLEWVGLIWYDGTKKYYSDFVKGRFTISRDNSKNMLYLQMNNLRAEDTAIYYCARFLIGATRRGNAMDYWGQGTSVIVSS
VL: EVVLTQSPATLSLSPGERATLSCRASQSIDSDLAWSQQKTGQPPRLIIYDASNRATGIPARFSGSGSGTDFTLTISSLEPEDFAVYYCQQRSDWPLTFGGGTKVEIR
notes: Expressed as human IgG4/kappa; without His tag and Protein A purified for Biacore; also called 397-27-3
B2: M1-1 (antibody, V domains shown)
VH: QVQLVESGGDVVQPGGSLRLSCAASGVAFRDYGMHWVRQAPGKGLEWVAVIWYDGSKKYYGDSVKGRFTVSRDNSKNMLYLEMNGLKAEDTAMYYCARNDDYWGQGTLVTVSS
VL: EIVLTQSPATLSLSPGERATLSCRASQSVSNSLSWYQQNPGQSPRLIIYDTSKRATGIPARFSGSGSGTDFTLTINNLETEDFAVYYCHQRSDWPLTFGGGTKVEIK
notes: Expressed as human IgG4/kappa in 293F or Expi293 cells; retains the CDR H3 of 17D8; also called 319-9-8
B3: M1-7 (antibody, V domains shown)
VH: QLQLVESGGDVVQPGGSLRLSCAASGVVFSDFGLEWVRQAPGKGLEWLAVIWYDGSRKHYADSVKGRFTISRDNSKNMLYLQMNSLRVEDTAMYYCARCHSKEDYWGQGTLVTVSS
VL: EIEVTQSPATLSLSPGERATLSCRASQSIDTDLAWFQQRPGQTPRLIIYDASKRATGIPARFSGGGSGTDFTLTISSLEPEDFAVYYCQQRTTWPLTFGGGTKVEIK
notes: Expressed as human IgG4/kappa in 293F or Expi293 cells; also called 319-9-75
B4: M1-5 (antibody, human IgG4, V domains shown)
VH: QVQLVESGGDVVQPGGSLRLSCTVSGAVFRDLGMEWVRQAPGKGLEWLAVIWYDGGRKHYADSVKGRFTISRDNSRNMLFLQMNGLRVDDTAMYYCTRSHSTDDYWGQGTLVTVSS
VL: EIVLTQSPATLSVSPGERATLSCRASQSISSDLAWFQQKPGQAPRLIIHGASKRATGIPARFSGSGSGTDFTLTISSLEPEDFAVYYCQQRDSWPLNFGGGTKVEIK
notes: Expressed as human IgG4/kappa; without His tag and Protein A purified for Biacore; also called 319-9-34
B5: M2-3 (antibody, V domains shown)
VH: QGHLVESGGDVVLPGGSLRLSCTESGVDLSDFGIHWVRQTPGKGLEWVALIWYDGSKKFYADSVKDRFTISRDNSKNMVYLEMISLRVEDTAMYFCARGIRRGPWFTYWGPGTLVTVST
VL: B4 VL with A9V, T10I, V13L, K39T, H49Y, G50D, K53N, D92S, S93N, N97T
notes: Expressed as human IgG4/kappa in 293F or Expi293 cells; also called 397-27-25
B6: M2-2 (antibody, V domains shown)
VH: B1 VH with F29I, R30S, T56S, M78I, I93M, I120T
VL: B1 VL with T40P
notes: Expressed as human IgG4/kappa in 293F or Expi293 cells; also called 397-27-23
B7: M2-4 (antibody, V domains shown)
VH: QVQLVESGGDVVQPGGSLRLSCAASGVAFRNYGMHWVRQAPGKGLEWVAIIWYDGSNKYYADSVKGRFTISRDNSKNMLYLQMNSLRAEDTAMYYCARLSIGTTHYFDTDDYWGQGTSVTVSS
VL: EIVLTQSPATLSLSPGERATLSCRASQSVSSYLAWYQQKVGQAPRLIIFDASNRATGIPARFSGSGSGTDFTLTITSLDPEDFAVYYCQQRSAWPLTFGGGTKVEIR
notes: Expressed as human IgG4/kappa; 6xHis tag at the C-terminus of the Fc for ELISA
B8: M1-2 (antibody, V domains shown)
VH: B3 VH with L2V, V28A, F32Y, L34M, M78I, V88A, E103D
VL: B3 VL with E3V, V4L, S7F, A25T, S28N, T31S, R39K, T43A, K53N, S76T
notes: Expressed as human IgG4/kappa in 293F or Expi293 cells; also called 319-9-15
B9: M1-6 (antibody, V domains shown)
VH: QVQLVESGGDVVQSGGSLRLSCAVSGVVFSDYGFEWVRQAPGKGLEWVAVIWYDGSRKHYADSVQGRFTISRDNFRNMLYLQMTGLRVEDTAKYYCTRSHSHEDYWGQGTLVTVSS
VL: EIVLTQSPATLSLSPGERATLSCGASQNIDNSLAWFQQKPGQAPRLIIYDASKRATGIPARFSGSGSGTDFTLTISTLEPEDFAVYYCQQRDHWPLNFGGGTKVEVK
notes: Expressed as human IgG4/kappa in 293F or Expi293 cells; also called 319-9-53
B10: M1-3 (antibody, V domains shown)
VH: QEWLVESGGDVVQPGGSLRLSCATSKVTFNDFGIHWVRQAPGKGLEWVAIIWYDGSRNHYADSVRGRFTLSRDNSKNMVHLHMSSLRTEDTAMYYCARGIHSNDDYWGQGTMVTVSS
VL: EIVLTQSPATLSLSPGERATLSCRTSQSVSSDLAWFQQKPGQAPRLFIFDASKRVNGIPARFSGSGSGTDFTLTISSLEPEDFAVYYCQQRTDWPLTFGGGSRVEIK
notes: Expressed as human IgG4/kappa in 293F or Expi293 cells; also called 319-9-17
B11: M1-4 (antibody, V domains shown)
VH: B9 VH with S14P, V28T, S30G, Y32F, D62E, Q65R, F75S, L79M, Q82E
VL: B4 VL with V13L, S31N, D32Y, P40S, G50D, S52F, T56A, A60T, S93N
notes: Expressed as human IgG4/kappa in 293F or Expi293 cells; also called 319-9-27
B12: M2-5 (antibody, V domains shown)
VH: QVQLVESGGDVVQPGGSLRLSCAASGVVFSDYGLYWVRQAPGKGLEWVALIWYDGSKKFYADSVKGRFSISRDNSKNMLYLQMNNLRADDSAIYYCSRGIRQGPWFAYWGQGTRVTVSP
VL: B1 VL with V2I, D30S, A34T, S36F, T40P, P43A, A84V, Q89L, R107K
notes: Expressed as human IgG4/kappa in 293F or Expi293 cells; also called 397-27-93

Biological target: PD1-Fc fusion protein (human) (UniProt Q15116)
Assay: ELISA, plate coated with PD1-Fc fusion, OD405

| binding | Binder |
| --- | --- |
| binds | B1 |
| binds | B2 |
| binds | B3 |
| binds | B4 |
| binds | B5 |

Biological target: PD1-Fc fusion protein (human) (UniProt Q15116)
Assay: ELISA, plate coated with PD1-Fc fusion, AP-anti-human kappa detection

| binding | Binder |
| --- | --- |
| binds | B1 |
| binds | B6 |
| binds | B2 |
| binds | B7 |
| binds | B3 |
| binds | B8 |
| binds | B9 |
| binds | B10 |
| binds | B4 |
| binds | B11 |
| binds | B5 |
| binds | B12 |

Biological target: T1, PD1 N-terminal loop-GST fusion protein (human)
Assay: ELISA, plate coated with PD1 N-terminal loop-GST fusion

| binding | Binder |
| --- | --- |
| binds | B1 |
| binds | B6 |
| binds | B2 |
| binds | B7 |
| binds | B9 |
| binds | B10 |
| binds | B4 |
| binds | B11 |
| binds | B5 |
| binds | B12 |

Biological target: T1, PD1 N-terminal loop-GST fusion protein (human)
Assay: ELISA, plate coated with PD1 N-terminal loop-GST fusion (coating taken from paragraph 399 and paragraph 400; not printed on the sheet), OD405

| binding | Binder |
| --- | --- |
| binds | B6 |
| binds | B7 |
| binds | B9 |
| binds | B10 |
| binds | B11 |
| binds | B12 |

Biological target: PD1-Fc fusion protein (human) (UniProt Q15116)
Assay: ELISA, plate coated with PD1-Fc fusion (coating taken from paragraph 395; not printed on the sheet), OD405

| binding | Binder |
| --- | --- |
| binds | B6 |
| binds | B7 |
| binds | B8 |
| binds | B9 |
| binds | B10 |
| binds | B11 |
| binds | B12 |

Biological target: PD1-Fc fusion protein (human) (UniProt Q15116)
Assay: ELISA, plate coated with PD1-Fc fusion (FIG. 5E)

| binding | Binder |
| --- | --- |
| binds | B1 |
| binds | B2 |
| binds | B3 |
| binds | B4 |
| binds | B5 |

Biological target: T1, PD1 N-terminal loop-GST fusion protein (human)
Assay: ELISA, plate coated with PD1 N-terminal loop-GST fusion, AP-anti-human kappa, OD405

| binding | Binder |
| --- | --- |
| binds | B1 |
| binds | B2 |
| binds | B4 |
| binds | B5 |
